Most values lie at the floor of the assay. Slopes are relative: functional sequences can read slightly below zero. Bounds are passed on as bounds.

For the data set, the system named is Saccharomyces cerevisiae PS128 hsf1 delta, HSF1(1-493) fusion. In words: growth estimate (transactivation domain function in HSF1 fusion, heat-shock survival) (a.u. (slope of normalised read count over time)); higher = stronger growth at 37°C, i.e. more transactivation activity. Conditions: library: random library.
On to QRLLRDISQRRRMDYW, for which the growth estimate is below -0.25.
In the case of IHPAHRPS, the growth estimate was below -0.25.
The figure for FSGR is below -0.25.
The figure for RNSIALTARRASVTFGLILP is below -0.25; for RAGAATRWIDVRRRTFV it is below -0.25; for CRGERRHRVVINVWIMVSPA it is below -0.25.
Consider RTFLPVFS, for which the growth estimate is below -0.25.
As to APMLPHGRNIVVCGSWLGRA, the growth estimate was below -0.25.
TLLYVIDSQECGCGGYDLIG: the growth estimate was below -0.25.
On to RSVPSYFGSRV, for which the growth estimate is below -0.25.
The figure for MGATQAVREGGARYFL is below -0.25.
The figure for VKDKSYVLVAL is below -0.25.
Turning to RAQETHTSSSTGKSTRSDAS, the growth estimate was below -0.25.
SEWVKVSSALANYLGCQFYR: the growth estimate was below -0.25.
The figure for YDERRRCISTLNAELYIECP is below -0.25; for VNVVSDDTVLGDVQDGRNGH it is below -0.25.
AQSNGSRG: the growth estimate is below -0.25.
The figure for GVSRDQESV is below -0.25; for TESEM it is below -0.25; for SQEENLKPTPSVVPGVVHVS it is below -0.25.
On to TPEE, for which the growth estimate is below -0.25.
On to GDKSKTITYSRAVYIALRPG, for which the growth estimate is below -0.25.
On to ISIAVPTRDRRIWSLRIWST, for which the growth estimate is below -0.25.
For RCADAYSSESQQRSHANGRG, the growth estimate was below -0.25.
As to SAASY, the growth estimate is below -0.25.
As to AQHN, the growth estimate was -0.0005.
The figure for QSAGST is below -0.25.
The figure for FHRAGTSRY is below -0.25; for GGIGVQDQQKARLSNCLLNG it is below -0.25.
The figure for LSSGTNWRFSTLGL is below -0.25.
Consider CSERTCHITLCRRQHPRNAR, for which the growth estimate is below -0.25.
The figure for CHS is -0.2; for PSMHIVP it is below -0.25; for ITWSPLWGERLHC it is below -0.25.
On to HIENGGVPAGLSQGCLRGRT, for which the growth estimate is below -0.25.
For SHQRLANDQLSVE, the growth estimate was -0.246.
The figure for RNSRLFVNYRKVPDESVRWP is below -0.25; for SGGAGRRVMYQKATSDIRVR it is below -0.25; for IRVNN it is below -0.25.
For VDDVLEEVTGAY, the growth estimate was below -0.25.
On to NRVNGTAIRTPNRRSHWVRS, for which the growth estimate is below -0.25.
For VATVLKYEC, the growth estimate is below -0.25.
With TVLMEIVYLGTKVWSICSMY, the growth estimate is below -0.25.
The figure for FLLKSAEPHRRKTAACSPPS is below -0.25; for RSYG it is below -0.25.
The figure for RPRHVLGDVGSKVRGTGDPP is below -0.25.
The figure for YEKLRVKPVFPARVFLSENR is below -0.25; for KTRVCRCGRGPPSGTGMLTV it is below -0.25; for KPEIARLSLGFQS it is below -0.25.
As to SNRVNCPTYPKNVTPLSARS, the growth estimate was below -0.25.
Take RTVEIILGREPVKAGTGPPF: the growth estimate was below -0.25.
The figure for NGHCQQTRLTFRWRDCSEPS is below -0.25; for LRRGDTGCLKGITVKPFGSR it is below -0.25.
The figure for SGEDRLRPTR is below -0.25; for NGDQYTENLPWPSGTAVSKR it is below -0.25; for GVLRLNSMNEPGYGKNPVVG it is below -0.25.
The figure for VRHRLCAGS is below -0.25; for LILLGPND it is below -0.25.
For the substance RFTCCTLP, the growth estimate is -0.165.
The figure for CRGATPNESHRCVSFAYDTE is below -0.25; for SSLPVLFTFRQSIILSLA it is below -0.25.
The figure for YIGPLWVASYGTPKPCVLGR is below -0.25; for LWDSRFTRGRRNALSQVR it is below -0.25.
LTYLLRPAKHTLVWFWV: the growth estimate was below -0.25.
On to MIE, for which the growth estimate was below -0.25.
The figure for ANGGEIDYCIIPNAAPELWI is below -0.25.
The figure for SGRDANPVMKEKDFILEATD is below -0.25; for PQT it is below -0.25; for RYGRVGLRVFSSFGHW it is below -0.25.
The figure for LRYIRSGYIMQLTSPVVWHR is below -0.25; for WTGTLSIIPRLTWDEGR it is below -0.25.
In the case of VKALLEAKCRHSLAHPNTGL, the growth estimate was below -0.25.
The figure for GGHRMAESMHFGPRFPRMT is below -0.25; for NARCS it is below -0.25; for GNFTALGGLAHQS it is below -0.25.
The figure for LSFL is below -0.25; for RGMAEQRLVSMGRNMNSTRY it is below -0.25.
With LQDRSGSFTVDPL, the growth estimate was below -0.25.
The figure for CKKTWFYRASVSSLKPLARS is below -0.25; for GGQLMRRSRKEDMHLALWAT it is below -0.25; for AGTLHLWDGAS it is below -0.25.
The figure for FGPGFLVDSYER is below -0.25; for MDCGGACVAYHTLGWHRRYE it is below -0.25; for RGSSPEISGHSSGVVDRDHG it is below -0.25.
In the case of TQNDSRKKGEPRESVC, the growth estimate was -0.246.
The figure for QWVRVGRRTQAVLNAPRCRL is below -0.25; for VQEGRLGQSQGGG it is below -0.25; for ALTHWSRVRLSE it is below -0.25.
The figure for ILRRLGRCLGLDQKRGAEAQ is below -0.25; for VSVCMKSVHKRVGPKTVFLL it is below -0.25; for GAPSSK it is below -0.25.
As to CCGRFHGFINHRRPEDR, the growth estimate is below -0.25.
The figure for SLRLPQSRSNSPRERK is -0.231; for TFERGDGGERYCFGSIHISI it is below -0.25; for TWSVEQRVCLFSADRYSAYS it is below -0.25.
The figure for MSLG is below -0.25; for TDSTAPPPALTLLSASPVQG it is below -0.25; for TRTALHNPVSGGILVFSCSG it is below -0.25.
Turning to SSGNLQA, the growth estimate was below -0.25.
The figure for RLRGANSAAPEQESR is below -0.25; for STLGLLPTLDPRMVPALDAI it is below -0.25.
As for EATGKTQSGNENAHPAATYY, the growth estimate was below -0.25.
The figure for AGSVSPHSPTDARINAVLWT is below -0.25.
For the substance CHDQSRSDGGIGFKMRRRIA, the growth estimate is below -0.25.
Turning to SQIGFFDIMNSCGLWAYDWA, the growth estimate was 0.128.
The figure for CNP is below -0.25; for HFSIVGCRCGAQSILSKWGS it is below -0.25; for TGQICGNVAHWGLRSPLGDV it is below -0.25.
The figure for EARERWMGYIPAG is below -0.25.
The figure for ERCARSRAWIHFDFFDMIDV is below -0.25; for GCYVSV it is below -0.25; for WHNNRRPEWEYEIAASSMSD it is below -0.25.
With SSIAVS, the growth estimate was below -0.25.
Consider RGDKTLYDCPQPLSLWSQYT, for which the growth estimate was below -0.25.

Source of the values: the supplement of paper PMC5949888.
